Data taken from ChEMBL document CHEMBL3988442, “University of Dundee, Small-Polar-MMV Screening Library” (2021).

Values are the deposited “Percent Effect”, in %. The controls that fix the scale are not given in the record; negative values are as filed. Compounds were drawn at random from those tested, without regard to their results. Two or more numbers in one place are separate tests of the same structure; such repeats can differ widely. A dash means the value is not listed here; it may have been measured.

A: 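Whole-parasite assay of Trypanosoma brucei over 72 hours; the read-out is not stated. Concentration: 30 µM. Direction is inferred from retests: higher values go with stronger inhibition. Values scatter widely below zero; nearly all retest evidence comes from the higher of the two concentrations used. About 64,000 compounds were tested under these conditions; 1.5% (about 940) showed 50% or more at least once.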
B: 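Cell assay of Leishmania donovani living inside macrophages; the read-out is not stated. Tested at 30 µM. Higher reads as stronger inhibition (inferred: compounds with an IC50 in retests scored well above the rest). Of about 69,000 compounds tested this way, about 1,000 (1.5%) reached 50% or more in at least one test.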
C: 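Assay of Toxoplasma gondii numbers, read through their beta-galactosidase reporter with a colour substrate. Tested at 10 µM. Higher reads as fewer parasites (inferred from which compounds were picked for retests). About 67,000 compounds were tested under these conditions; 0.38% (about 260) showed 50% or more at least once.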

| # | structure | A | B | C |
|---|---|---|---|---|
| 1 | `O=S(=O)(c1ccccc1)N1CCC2(CCCN2Cc2ccc(Cl)cc2)C1` (stereo not given) | 61.41 | 36.08 | -12.85 |
| 2 | `CO[C@@H]1CN(c2ccccc2)S(=O)(=O)[C@@]12CCN(Cc1cncs1)C2` | -22.77 | -10.85 | -14.98 |
| 3 | `CCOc1cc(-c2cc(=O)n3c(n2)CCCCC3)ccc1O` | -61.81 | -28.99 | - |
| 4 | `O=C(Nc1ccccc1)c1nn(C2CCS(=O)(=O)C2)c2c1CCCC2` (stereo not given) | 23.09 | 7.212 | 6.486 |
| 5 | `O=C(O)C(F)(F)F.O=C(O)C(F)(F)F.[H][C@@]12OCCN(Cc3ccccn3)[C@@]1([H])CC[C@H]2OC` | -45.1 | 1.125 | 2.243 |
| 6 | `CCN(CC)S(=O)(=O)CCNc1nnc(C(C)C)s1` | -26.89 | -13.48 | -19.2 |
| 7 | `Cc1cnn(CCNCC(=O)NCCOc2ccc(Cl)cc2)c1` | 24.56 | 5.225 | 13.76 |
| 8 | `CCN1CC(COC(=O)c2ccccc2Cl)CC1=O` (stereo not given) | -19.29 | -4.07 | 7.528 |
| 9 | `CC(C)c1nnc2n1CC(CNCc1nc3ccccc3s1)CC2` (stereo not given) | - | -6.919 | 11.11 |
| 10 | `COCc1cc(O)nc(C2CCCN(Cc3cccc(Cl)c3Cl)C2)n1` (stereo not given) | 17.31 | 18.27 & 25.06 | -8.187 |
| 11 | `c1cncc(CNc2cccc(OCCN3CCCCC3)c2)c1` | -14.55 | 15.88 | -4.132 |
| 12 | `COc1cc(NC(=O)NCC2CCCO2)cc(OC)c1OC` (stereo not given) | - | 12.01 | 9.353 |
| 13 | `O=S(=O)(c1ccccc1)N1CCN(Cc2ccc(F)cc2Br)CC1` | 9.971 | 20.15 | -15.75 |
| 14 | `Cc1ccc(CSc2nc(N)cc(NCCS(=O)(=O)N(C)C)n2)cc1` | 16.94 | 24.79 | -0.8323 |
| 15 | `CN(C)c1ccc(NC(=O)N2CCCCCC2c2ccncc2)cn1` (stereo not given) | -915.7 | 16.3 | -2.624 |
| 16 | `CC(C)c1noc(CCC(=O)N2CCSCC2)n1` | -18.72 | 3.27 | 4.548 |
| 17 | `CN(c1ccccc1C(=O)O)S(=O)(=O)c1cccc2cccnc12` | -20.32 | -2.798 | -6.639 |
| 18 | `COCCO[C@@H]1CCN(c2cc(OC)ncn2)[C@H]1Cc1cnn(C)c1` | -100.8 | 20.07 | 6.085 |
| 19 | `COc1ccccc1CC1CCCN(CCC(N)=O)C1` (stereo not given) | 100.1 | 0.367 | 1.737 |
| 20 | `O=C(Nc1ccc(Cn2cccn2)cc1)N1CCC(CO)CC1` | 16 | 12.8 | 3.759 |
| 21 | `O=C(NCc1ccccc1CN1CCOCC1)c1ccc(Br)cc1F` | -10.86 | 10.81 | 5.183 |
| 22 | `COc1ccc2cc(CNc3c(C)nn(C(C)C)c3C)ccc2c1` | -7.262 | 2.201 | -4.141 |
| 23 | `Cn1cnc2ccc(NC(=O)CC3CCN(C4CCCCC4)CC3)cc21` | -22.77 | 49.63 | 2.584 |
| 24 | `Clc1ccc(N2CCC(OCC3CCCCO3)CC2)nc1` (stereo not given) | -88.19 | -4.937 | -28.19 |
| 25 | `NC(=O)c1cnn2c(C3CCCN(C4CCOCC4)C3)ccnc12` (stereo not given) | 8.192 | -0.4553 | -3.13 |
| 26 | `CCOCC1CN(C(=O)c2cnoc2C)Cc2cn(C)nc21.O=C(O)C(F)(F)F` (stereo not given) | -59.95 | 23.4 | -0.8091 |
| 27 | `Cn1ncc2c1NC(=O)CSC2c1ccc2c(c1)OCO2` (stereo not given) | -18.7 | -1.358 | -2.512 |
| 28 | `CC(=O)NCC1CCN(C(=O)NCCc2ccc(Cl)s2)CC1` | -17.08 | 15.98 | -9.337 |
| 29 | `O=C(NCCO)Nc1c(F)cc(F)cc1-c1ccccc1` | -47.97 | -2.689 | 2.818 |
| 30 | `Cc1ccc(-c2ncc(C(=O)NCCNc3ncccn3)s2)c(C)c1` | 30.85 | 31.28 | 4.882 |
| 31 | `COc1ccccc1-n1nc(-c2ccco2)n(CC(N)=O)c1=O` | -4.432 | -20.63 | -38.25 |
| 32 | `CN(Cc1cnn(C)c1)C(=O)NCc1csc(Br)c1` | -47.67 | -16.21 | 0.6462 |
| 33 | `COC(=O)CCn1ccc(=O)c2ccccc21` | -32.26 | -18.63 | 22.9 |
| 34 | `OC1=C2C(=Nc3n[nH]c(O)c3C2c2ccco2)CCC1` (stereo not given) | -6.327 | -26.7 | -71.57 |
| 35 | `O=C(Cc1ccccn1)N1CCC(O)(Cn2ccc3ccncc32)CC1` | 15.51 | 16.16 | 4.679 |
| 36 | `O=C(Nc1ccc(OCc2cccc(F)c2)c(F)c1)C1COCCO1` (stereo not given) | -12.99 | 10.75 | -16.15 |
| 37 | `CC(C)(C)S(=O)(=O)c1ccc(N2CCC(n3ccnc3)CC2)cn1` | -0.722 | 31.74 | -15.25 |
| 38 | `COCCNC(=O)CN(C)C(C)c1nc(C)no1` (stereo not given) | -2.129 | 1.393 | 9.746 |
| 39 | `COc1ccc(CC(C)(O)CNC(=O)c2cccs2)cc1` (stereo not given) | -7.244 | 13.58 | -7.324 |
| 40 | `CC(NC(=O)c1cccs1)C(=O)NS(=O)(=O)c1cccc(C#N)c1` (stereo not given) | -0.0714 | -9.545 | -2.488 |
| 41 | `CN(CCO)c1nc(-c2ccccn2)nc2c1CCNC2` | -71.79 | -5.417 | 6.45 |
| 42 | `Cc1ccc(C(=O)N2CCN(C(=O)Nc3ccccn3)CC2)o1` | -79.37 | -30.01 | 1.122 |
| 43 | `O=S(=O)(Cc1cccc2cccnc12)NC(CO)c1ccco1` (stereo not given) | 12.83 | 19.62 | 2.727 |
| 44 | `O=C(NCCN1CCOCC1)c1cc(-c2ccc3c(c2)CCO3)n[nH]1` | 31.8 | 23.96 | 6.336 |
| 45 | `CN(C)CCn1c(=O)n(C)c(=O)c2ccccc21.Cl` | -42.23 | -33.87 | - |

4 of the entries, repeated:

structure,A,B,C
O=S(=O)(c1ccccc1)N1CCN(Cc2ccc(F)cc2Br)CC1,9.971,20.15,-15.75
CC(C)c1nnc2n1CC(CNCc1nc3ccccc3s1)CC2 (stereo not given),-,-6.919,11.11
CCOc1cc(-c2cc(=O)n3c(n2)CCCCC3)ccc1O,-61.81,-28.99,-
Cc1cnn(CCNCC(=O)NCCOc2ccc(Cl)cc2)c1,24.56,5.225,13.76